This passage reports binding results from publication PMC10250293.

Protein sequences, listed by entry. Tags and fused reporters are not part of them.
UniProt Q00987: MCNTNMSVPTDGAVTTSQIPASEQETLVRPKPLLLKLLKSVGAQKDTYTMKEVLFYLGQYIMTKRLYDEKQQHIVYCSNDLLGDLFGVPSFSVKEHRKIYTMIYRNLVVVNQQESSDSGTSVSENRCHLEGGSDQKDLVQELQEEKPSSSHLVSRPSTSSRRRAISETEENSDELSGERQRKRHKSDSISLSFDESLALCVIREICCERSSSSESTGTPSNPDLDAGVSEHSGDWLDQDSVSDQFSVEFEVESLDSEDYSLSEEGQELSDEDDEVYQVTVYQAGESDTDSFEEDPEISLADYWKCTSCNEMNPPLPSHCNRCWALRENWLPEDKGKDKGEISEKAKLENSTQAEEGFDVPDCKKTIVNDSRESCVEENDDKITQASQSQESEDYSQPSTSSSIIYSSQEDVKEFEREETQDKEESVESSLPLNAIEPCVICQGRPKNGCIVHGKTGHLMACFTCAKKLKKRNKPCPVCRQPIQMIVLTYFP

No constants are given. Whether binding was seen depends on the method and setting. Binding seen in cells or lysates may run through a third protein. Some results given as binding are weak or reduced against the parent protein; the word gives no strength.

The target of this test is T1, human males absent on the first (hMOF) (human) (UniProt Q9H7Z6).
T1 sequence: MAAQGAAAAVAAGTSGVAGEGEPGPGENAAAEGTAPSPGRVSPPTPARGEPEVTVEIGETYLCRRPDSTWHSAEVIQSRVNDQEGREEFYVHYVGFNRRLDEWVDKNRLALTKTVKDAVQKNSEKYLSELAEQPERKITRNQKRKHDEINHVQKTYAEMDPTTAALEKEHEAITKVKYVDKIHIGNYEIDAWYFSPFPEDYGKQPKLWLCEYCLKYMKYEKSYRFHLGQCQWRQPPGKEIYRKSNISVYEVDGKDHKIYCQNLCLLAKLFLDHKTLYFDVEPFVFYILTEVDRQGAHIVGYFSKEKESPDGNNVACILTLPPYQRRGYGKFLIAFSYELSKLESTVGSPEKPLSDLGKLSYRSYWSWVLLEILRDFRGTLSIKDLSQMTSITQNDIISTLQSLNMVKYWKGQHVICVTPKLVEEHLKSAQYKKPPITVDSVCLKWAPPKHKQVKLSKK
In words: co-IP; total protein of OVCAR3 cells; primary antibody (anti-MDM2 or anti-hMOF) added to the lysate overnight at 4 °C, Protein A/G magnetic beads 2 h at 4 °C, 5 washes in lysis buffer, western blot; done in both directions. Background: A western blot detects proteins with antibodies after separation by electrophoresis.

Regarding “Mouse double minute 2 homolog (MDM2) (from UniProt Q00987 1-491) (enzyme)”, the binding entry is “binds”.
